Measured values from PMC4870705, “Topical Delivery of Protein and Peptide Using Novel Cell Penetrating Peptide IMT-P8” (Scientific Reports, 2016).

Tested on: HeLa cells
Assay: Confocal laser scanning microscopy, intracellular localization in live cells
Conditions: FITC-labeled peptide 2.5 μM with MitoTracker Red CMXRos 100 nM, 30 min, 37 °C, serum-free medium

Row | Sequence | Co-localization with MitoTracker (mitochondria-specific dye)
1 | KLAKLAKKLAKLAKRRWRRWNRFNRRRCR [IMT-P8-KLA] | co-localization with MitoTracker
2 | RRWRRWNRFNRRRCR [IMT-P8] | did not show any co-localization with Mitotracker dye
